A short description of this assay: qHTS Assay for Modulators of Lamin A Splicing. To be noted: HeLa LMNA splicing GFP/RFP minigene ratio, 48 h. The gist of the method: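 S3 HeLa cells stably expressing lamin A-EGFP splicing minigene plus DsRed2, 600 cells/well, 48 h compound exposure at 37C. Laser-scanning cytometry; analysed as GFP (500-530 nm)/RFP (575-640 nm) total intensity ratio; 0.5% DMSO vehicle.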
On the technique in general: qHTS replaces the single test concentration by a dilution series.

Setting [1] is: measured here: GFP splicing reporter channel.
Where [2] appears, read: measured here: RFP viability control channel.

Some of the results follow. Shown are side measurements of this screen, not its main read-out; they come without a call. Compounds called inactive in the main read-out are mostly missing here. The note in brackets gives the kind of curve behind each potency; many fits are weak.

Usually AC50 stands for the midpoint of the concentration-response curve, whichever way the signal moves. In the case of `COc1ccc2nc(NC(=O)c3ccc(S(=O)(=O)N4CCC(C)CC4)cc3)sc2c1`, the half-maximal activity concentration (AC50) is 0.126 µM [rising, full curve, poor fit] under setting [1] and 0.0251 µM [rising, full curve, poor fit] under setting [2].

For the molecule `Cc1ccnc(SCC(=O)c2ccc(Br)cc2)c1C#N`, the AC50 was 8.91 µM [rising, partial curve, poor fit] under setting [1] and 12.6 µM [rising, partial curve] under setting [2].

On to `N#C/C(=C/c1ccc(-c2ccc(S(N)(=O)=O)cc2)o1)C(=O)Nc1ccccc1`, for which the AC50 under setting [2] was 6.31 µM [rising, single point].

For the molecule `CCC1CSC(Nc2ccc(C(=O)/C=C/c3ccc(Oc4ccccc4)cc3)cc2)=N1` (stereo not drawn), the concentration at half-maximal activity (AC50) is 31.6 µM [falling, single point] under setting [1] and 2.82 µM [falling, single point] under setting [2].

`OC12CCCCC1C(c1ccc3c(c1)OCO3)N(Cc1cccc(F)c1)CC2` (stereo not drawn): the AC50 was 3.55 µM [falling, single point] under setting [1] and 35.5 µM [falling, single point] under setting [2].

For the molecule `Cc1ccc(NC(=S)N=Nc2c(O)n(C)c3ccc(S(=O)(=O)N4CCOCC4)cc23)cc1C`, the AC50 under setting [2] was 3.55 µM [rising, single point].

Turning to `Cc1[nH]c(=O)[nH]c(=O)c1/C=C/C(=O)OCC(C)C`, under setting [1], the AC50 was 6.31 µM [falling, single point].

`Cn1c(SCC(=O)N2c3ccccc3Sc3ccccc32)nc2ccccc21`: the AC50 under setting [2] is 14.1 µM [rising, partial curve, poor fit].

Take `CC(C)(C)c1ccc(CSC2=Nc3ccccc3C3=NC(CC(=O)NCc4cccs4)C(=O)N23)cc1` (stereo not drawn): the AC50 was 28.2 µM [falling, single point] under setting [1] and 35.5 µM [falling, single point] under setting [2].

As for `c1ccc(COc2cccc(CN3CCN(c4ccccn4)CC3)c2)cc1`, the half-maximal activity concentration (AC50) runs as follows: under setting [1], 12.6 µM [rising, partial curve]; under setting [2], 35.5 µM [rising, single point].

For the molecule `Cc1ccc(C(=O)NC(=C(Cl)Cl)S(=O)(=O)c2ccc(C)cc2)cc1`, the AC50 is 25.1 µM [falling, partial curve] under setting [1] and 17.8 µM [falling, single point] under setting [2].

In the case of `COc1ccc(OC)c(-c2csc(NC(=O)CSc3ccc(Br)cc3)n2)c1`, the AC50 under setting [2] is 31.6 µM [rising, single point].

As to `CC(Oc1ccccc1F)C(=O)/C=C/N(C)C` (stereo not drawn), the half-maximal activity concentration (AC50) under setting [2] is 2.51 µM [falling, partial curve].

In the case of `COc1cc(/C=N/N(C)c2ccccc2)cc(Cl)c1O`, the AC50 reads like this: under setting [1], 22.4 µM [falling, single point]; under setting [2], 14.1 µM [falling, partial curve].

For the molecule `O=C(CN1C(=O)c2ccccc2C1=O)NCCOc1ccccc1`, the concentration at half-maximal activity (AC50) under setting [2] is 5.62 µM [rising, single point].

As to `CNC(=O)CN(c1ccc(C23CC4CC(CC(C4)C2)C3)cc1)S(C)(=O)=O`, the half-maximal activity concentration (AC50) under setting [1] was 0.00398 µM [falling, full curve, poor fit].

Consider `CCC(=O)c1ccc(OCC(=O)N(C)CC(=O)Nc2cccc(F)c2)cc1`, for which the AC50 was 0.141 µM [falling, full curve] under setting [1] and 0.158 µM [falling, full curve] under setting [2].

For the molecule `Cc1ccc(/C=N/NC(=O)CSc2nc3ccccc3c(=O)n2-c2ccccc2C)s1`, the AC50 under setting [1] is 7.08 µM [rising, full curve, poor fit].

As for `CNC(=S)NNC(=O)c1ccc2c(c1)OCO2`, the half-maximal activity concentration (AC50) was 12.6 µM [rising, single point] under setting [1] and 31.6 µM [rising, single point] under setting [2].

For the molecule `CC(=O)c1c(C)nc2nonc2c1N`, the concentration at half-maximal activity (AC50) under setting [2] is 0.562 µM [falling, full curve, poor fit].

For `COc1cc2c(cc1OC)C(c1cccc([N+](=O)[O-])c1)N(C(=O)c1ccccc1C(=O)O)CC2` (stereo not drawn), the AC50 under setting [1] is 0.501 µM [rising, full curve, poor fit].

As for `CCOC(=O)c1c(N2C(=O)Nc3ccccc3N2O)sc2c1CCCC2`, the concentration at half-maximal activity (AC50) under setting [2] was 0.501 µM [rising, full curve].

Turning to `Cc1onc(-c2ccccc2)c1C(=O)Nc1nnc(COc2ccc(Cl)cc2)s1`, the concentration at half-maximal activity (AC50) under setting [1] was 12.6 µM [rising, partial curve] and the AC50 under setting [2] is 17.8 µM [rising, single point].

Turning to `Oc1ccc(-c2nc(-c3ccc(F)cc3)c(-c3ccncc3)[nH]2)cc1`, the concentration at half-maximal activity (AC50) reads like this: under setting [1], 1.58 µM [falling, full curve]; under setting [2], 5.01 µM [falling, partial curve].

On to `Cc1cccc(C)c1Nc1nnc(SCC(=O)NC2CCS(=O)(=O)C2)s1` (stereo not drawn), for which the concentration at half-maximal activity (AC50) by setting is: under setting [1], 0.708 µM [rising, single point]; under setting [2], 1.78 µM [rising, partial curve].

As for `Cc1ccc(NC(=O)C2SC(=Nc3ccccc3)C(C(=O)Nc3ccc(Cl)cc3)=C2N)cc1` (stereo not drawn), the AC50 is, setting by setting: under setting [1], 31.6 µM [falling, partial curve]; under setting [2], 35.5 µM [rising, single point].

In the case of `Cc1ccc(CSc2c(C)cnc3c2c(=O)n(C)c(=O)n3C)cc1`, under setting [2], the concentration at half-maximal activity (AC50) was 6.31 µM [rising, single point].

Consider `COc1cccc2sc(NC(=O)c3ccc4c(c3)OCCO4)nc12`, for which the half-maximal activity concentration (AC50) under setting [2] is 35.5 µM [rising, single point].

For `Cc1cc(N/N=C/c2ccc(O)cc2O)nc(-c2ccccc2O)n1`, the AC50 under setting [1] was 35.5 µM [falling, single point].

As for `CC1CCc2c(nc3sc4c(c3c2N)CCCC4)C1` (stereo not drawn), under setting [2], the AC50 is 8.91 µM [rising, partial curve].

Consider `COc1ccc2ccc3c(c2c1)N=CC1(O3)N(C)c2ccccc2C1(C)C` (stereo not drawn), for which the concentration at half-maximal activity (AC50) under setting [1] was 15.8 µM [rising, single point].

Regarding `CS(=O)(=O)N1CCc2cc(-c3csc(NC(=O)Cc4cccs4)n3)ccc21`, the AC50 under setting [2] is 3.16 µM [rising, single point].

For `Cn1c(SCC(=O)C(C)(C)C)nnc1-c1ccc(F)cc1`, the AC50 under setting [1] was 0.00355 µM [rising, full curve, poor fit].

Regarding `CN(C)c1nc(Nc2ccc(Cl)cc2)nc(OCC#N)n1`, the AC50 under setting [2] is 22.4 µM [falling, single point].

For `COc1ccc(C(=O)CSc2nnc(COc3ccccc3)n2Cc2ccco2)cc1`, the concentration at half-maximal activity (AC50) under setting [1] is 0.282 µM [rising, full curve].

For `COc1ccc2c(c1)C1C=CCC1C(c1cc3c(cc1Br)OCO3)N2` (stereo not drawn), under setting [1], the AC50 was 3.98 µM [rising, partial curve].

Consider `COc1cc(NC(=O)c2ccc(COc3ccccc3Br)o2)cc(OC)c1OC`, for which, under setting [2], the half-maximal activity concentration (AC50) is 35.5 µM [rising, single point].

Regarding `C=CCn1c(-c2ccc(OC)c(OC)c2)cs/c1=N\c1ccccn1`, the AC50 by setting is: under setting [1], 12.6 µM [rising, single point]; under setting [2], 14.1 µM [rising, partial curve].

With `CN(C)c1ccc(/C=C/c2nnnn2-c2ccccc2)cc1`, the AC50 under setting [2] was 11.2 µM [rising, single point].

As to `CCOc1ccc(C(C)=O)cc1CSC(=N)N`, under setting [1], the AC50 was 0.002 µM [falling, full curve, poor fit].

Turning to `O=C(CCCCCn1c(=S)[nH]c2cc3c(cc2c1=O)OCO3)N1CCN(C2CCCCC2)CC1`, the AC50 under setting [2] is 35.5 µM [falling, single point].

As for `COc1ccc(/C=C/C(=O)N2CCNC(=O)C2)c(OC)c1`, the half-maximal activity concentration (AC50) under setting [2] was 20 µM [rising, single point].

With `COc1ccc(-c2cc3ccccc3n2CC(O)Cn2nc(C)cc2C)cc1` (stereo not drawn), under setting [2], the AC50 was 7.94 µM [rising, partial curve].

Take `O=C(/C=C/c1c(F)cccc1Cl)c1ccc(F)cc1`: the AC50 under setting [1] was 28.2 µM [falling, single point] and the AC50 under setting [2] was 20 µM [falling, partial curve].

For `CC(=O)O[C@H]1CC[C@H]2[C@@H]3CCc4cc(O)ccc4[C@H]3CC[C@]12C`, the half-maximal activity concentration (AC50) by setting is: under setting [1], 22.4 µM [falling, single point]; under setting [2], 31.6 µM [falling, single point].

Turning to `Cc1cc2ncn(/N=C/c3ccc(-c4ccccc4)o3)c2cc1C`, the AC50 is, setting by setting: under setting [1], 22.4 µM [falling, single point]; under setting [2], 31.6 µM [falling, single point].

Take `Cn1cnnc1Sc1cc(N2CCN(S(=O)(=O)c3ccc4ccccc4c3)CC2)ccc1[N+](=O)[O-]`: the AC50 under setting [2] was 8.91 µM [rising, partial curve].

Turning to `O=C(Cn1ncc(Cl)c(Cl)c1=O)N1CCOCC1`, the concentration at half-maximal activity (AC50) by setting is: under setting [1], 10 µM [rising, single point]; under setting [2], 12.6 µM [rising, single point].

As for `Cc1cc(C)n(-c2nc3sc4c(c3c(=O)[nH]2)CCCC4)n1`, the concentration at half-maximal activity (AC50) under setting [2] is 2.51 µM [rising, full curve, poor fit].

For `O=C(Nc1nc(NC(=O)c2ccco2)n(-c2ccccc2)n1)c1ccccc1`, under setting [2], the concentration at half-maximal activity (AC50) is 11.2 µM [rising, partial curve].

As for `CS(=O)(=O)N(CC(=O)Nc1ccccc1Sc1ccccc1)c1ccc(F)cc1`, the AC50 under setting [1] is 12.6 µM [rising, single point] and the half-maximal activity concentration (AC50) under setting [2] is 14.1 µM [rising, single point].

As for `Fc1ccc(-c2nnc(CN3CCN(c4ncc(C(F)(F)F)cc4Cl)CC3)o2)cc1`, the AC50 is 12.6 µM [rising, partial curve, poor fit] under setting [1] and 11.2 µM [rising, partial curve] under setting [2].

In the case of `[O-][N+](=Nc1ccccc1)c1ccccc1`, the AC50 under setting [1] is 0.001 µM [falling, full curve, poor fit].

`COc1ccc(Cl)cc1NC(=S)NCCc1c[nH]c2ccccc12`: under setting [2], the AC50 was 11.2 µM [falling, partial curve, poor fit].

Take `Cc1ccc(OCCOCCOc2cccc3cccnc23)c(Br)c1`: the AC50 runs as follows: under setting [1], 11.2 µM [rising, single point]; under setting [2], 14.1 µM [rising, single point].

For `CN(C)/N=C/c1ccc(OS(=O)(=O)c2ccccc2)cc1`, the AC50 under setting [1] was 0.00447 µM [rising, full curve, poor fit].

The record behind these values is PubChem BioAssay AID1487 (National Center for Advancing Translational Sciences (NCATS), 2009).
